These are yes or no findings as the source states them, for the method shown. Binding seen in cells or lysates may run through a third protein. Some results given as binding are weak or reduced against the parent protein; the word gives no strength. For some assays here: Tags and fused reporters may be left off the sequences shown.

Protein sequences, listed by entry. Tags and fused reporters are not part of them.
UniProt P12868: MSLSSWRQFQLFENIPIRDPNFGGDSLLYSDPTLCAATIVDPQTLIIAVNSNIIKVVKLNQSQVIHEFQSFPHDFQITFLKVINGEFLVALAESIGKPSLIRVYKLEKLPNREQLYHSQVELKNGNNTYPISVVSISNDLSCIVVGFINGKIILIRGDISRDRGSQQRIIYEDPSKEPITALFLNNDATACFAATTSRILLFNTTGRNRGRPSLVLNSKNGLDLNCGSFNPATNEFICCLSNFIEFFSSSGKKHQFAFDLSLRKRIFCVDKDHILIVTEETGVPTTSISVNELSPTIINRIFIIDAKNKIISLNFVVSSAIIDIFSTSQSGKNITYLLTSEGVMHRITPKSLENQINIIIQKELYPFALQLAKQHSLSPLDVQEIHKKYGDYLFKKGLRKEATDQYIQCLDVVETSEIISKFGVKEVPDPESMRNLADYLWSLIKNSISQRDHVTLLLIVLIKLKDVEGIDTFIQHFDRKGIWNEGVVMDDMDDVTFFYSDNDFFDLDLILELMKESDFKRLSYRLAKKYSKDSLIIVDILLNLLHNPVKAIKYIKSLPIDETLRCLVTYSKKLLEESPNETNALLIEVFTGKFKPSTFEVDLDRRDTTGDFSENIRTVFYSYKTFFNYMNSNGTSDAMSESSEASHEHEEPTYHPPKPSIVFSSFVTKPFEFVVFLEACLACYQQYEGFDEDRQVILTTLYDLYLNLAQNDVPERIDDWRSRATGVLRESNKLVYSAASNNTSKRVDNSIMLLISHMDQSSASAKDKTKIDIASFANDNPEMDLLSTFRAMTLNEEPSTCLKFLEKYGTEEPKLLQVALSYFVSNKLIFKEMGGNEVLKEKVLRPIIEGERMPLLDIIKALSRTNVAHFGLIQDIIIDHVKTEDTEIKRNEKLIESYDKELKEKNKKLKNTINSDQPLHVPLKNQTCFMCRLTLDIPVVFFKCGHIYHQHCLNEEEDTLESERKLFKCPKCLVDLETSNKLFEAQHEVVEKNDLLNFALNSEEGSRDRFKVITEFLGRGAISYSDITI
UniProt P15731: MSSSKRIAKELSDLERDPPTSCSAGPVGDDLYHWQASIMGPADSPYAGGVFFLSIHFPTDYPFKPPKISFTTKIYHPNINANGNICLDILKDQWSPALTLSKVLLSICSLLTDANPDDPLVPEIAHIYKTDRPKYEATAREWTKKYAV
UniProt P22216: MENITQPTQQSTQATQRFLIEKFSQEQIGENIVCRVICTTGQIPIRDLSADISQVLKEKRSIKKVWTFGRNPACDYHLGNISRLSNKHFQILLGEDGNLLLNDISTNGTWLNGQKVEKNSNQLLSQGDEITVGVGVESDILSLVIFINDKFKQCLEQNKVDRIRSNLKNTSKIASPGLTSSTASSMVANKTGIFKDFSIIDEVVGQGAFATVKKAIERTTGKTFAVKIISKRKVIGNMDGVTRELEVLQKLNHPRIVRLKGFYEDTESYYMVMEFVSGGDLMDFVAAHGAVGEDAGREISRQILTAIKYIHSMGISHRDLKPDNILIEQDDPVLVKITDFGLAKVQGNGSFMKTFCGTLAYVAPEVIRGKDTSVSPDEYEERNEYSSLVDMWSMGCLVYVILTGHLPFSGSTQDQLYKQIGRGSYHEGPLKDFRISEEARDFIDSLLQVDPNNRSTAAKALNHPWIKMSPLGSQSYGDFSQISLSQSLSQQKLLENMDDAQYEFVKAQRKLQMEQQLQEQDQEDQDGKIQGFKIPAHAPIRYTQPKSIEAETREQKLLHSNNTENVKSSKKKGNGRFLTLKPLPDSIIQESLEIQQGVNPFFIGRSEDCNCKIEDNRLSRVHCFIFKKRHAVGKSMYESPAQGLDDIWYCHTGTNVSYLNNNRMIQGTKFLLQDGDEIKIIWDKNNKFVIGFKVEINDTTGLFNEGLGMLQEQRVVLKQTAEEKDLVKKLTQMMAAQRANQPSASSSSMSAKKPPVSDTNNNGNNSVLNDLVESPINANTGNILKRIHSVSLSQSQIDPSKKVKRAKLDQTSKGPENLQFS

Test [1] concerns the target T1, Tandem Affinity Purification (TAP) tagged Snt2 (S. cerevisiae) (UniProt P53127).
T1 sequence: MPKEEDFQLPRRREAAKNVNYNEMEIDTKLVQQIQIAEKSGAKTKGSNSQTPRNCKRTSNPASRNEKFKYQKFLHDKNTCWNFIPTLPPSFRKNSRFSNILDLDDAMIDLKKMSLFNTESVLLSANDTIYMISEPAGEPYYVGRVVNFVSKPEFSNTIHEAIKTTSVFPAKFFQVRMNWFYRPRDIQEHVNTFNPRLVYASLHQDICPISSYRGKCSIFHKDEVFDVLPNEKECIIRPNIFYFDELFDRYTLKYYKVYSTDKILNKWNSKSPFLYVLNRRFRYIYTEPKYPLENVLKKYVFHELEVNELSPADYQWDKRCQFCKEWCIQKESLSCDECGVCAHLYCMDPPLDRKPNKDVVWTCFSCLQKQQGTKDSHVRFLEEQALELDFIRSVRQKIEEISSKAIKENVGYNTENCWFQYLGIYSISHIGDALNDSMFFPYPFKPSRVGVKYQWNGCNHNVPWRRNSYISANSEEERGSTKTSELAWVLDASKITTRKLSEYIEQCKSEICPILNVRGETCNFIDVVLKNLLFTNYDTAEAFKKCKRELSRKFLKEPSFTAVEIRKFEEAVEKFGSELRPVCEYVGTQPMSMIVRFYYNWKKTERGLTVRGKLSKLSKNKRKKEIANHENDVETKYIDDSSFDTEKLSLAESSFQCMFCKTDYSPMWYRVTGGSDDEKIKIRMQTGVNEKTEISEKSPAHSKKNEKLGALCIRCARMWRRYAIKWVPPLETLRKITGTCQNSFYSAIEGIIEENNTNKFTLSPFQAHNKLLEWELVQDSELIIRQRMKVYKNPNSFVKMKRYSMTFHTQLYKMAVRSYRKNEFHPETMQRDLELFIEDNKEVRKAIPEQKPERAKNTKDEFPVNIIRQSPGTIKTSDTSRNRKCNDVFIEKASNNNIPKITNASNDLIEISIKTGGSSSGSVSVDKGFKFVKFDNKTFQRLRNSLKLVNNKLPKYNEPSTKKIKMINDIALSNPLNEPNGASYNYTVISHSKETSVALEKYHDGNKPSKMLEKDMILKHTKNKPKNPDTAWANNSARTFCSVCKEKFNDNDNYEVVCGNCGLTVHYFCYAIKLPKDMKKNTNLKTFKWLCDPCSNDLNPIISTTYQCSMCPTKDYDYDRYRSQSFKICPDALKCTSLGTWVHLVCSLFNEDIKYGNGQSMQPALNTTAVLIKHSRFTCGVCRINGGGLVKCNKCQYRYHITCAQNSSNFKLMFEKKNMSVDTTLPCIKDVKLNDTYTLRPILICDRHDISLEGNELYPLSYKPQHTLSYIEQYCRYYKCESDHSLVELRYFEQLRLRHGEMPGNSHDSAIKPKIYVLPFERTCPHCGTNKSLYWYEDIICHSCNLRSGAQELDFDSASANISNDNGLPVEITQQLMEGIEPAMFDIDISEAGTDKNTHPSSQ
The test can be described thus: co-IP; TAP tagged Pep5 or Snt2 immunoprecipitated from 3 liter cultures of strains carrying FLAG-tagged Rad53; Rad53 detected with FLAG antibodies.

Test [2] deals with T2, MYC tagged Hel1 (S. cerevisiae) (UniProt P36113).
T2 sequence: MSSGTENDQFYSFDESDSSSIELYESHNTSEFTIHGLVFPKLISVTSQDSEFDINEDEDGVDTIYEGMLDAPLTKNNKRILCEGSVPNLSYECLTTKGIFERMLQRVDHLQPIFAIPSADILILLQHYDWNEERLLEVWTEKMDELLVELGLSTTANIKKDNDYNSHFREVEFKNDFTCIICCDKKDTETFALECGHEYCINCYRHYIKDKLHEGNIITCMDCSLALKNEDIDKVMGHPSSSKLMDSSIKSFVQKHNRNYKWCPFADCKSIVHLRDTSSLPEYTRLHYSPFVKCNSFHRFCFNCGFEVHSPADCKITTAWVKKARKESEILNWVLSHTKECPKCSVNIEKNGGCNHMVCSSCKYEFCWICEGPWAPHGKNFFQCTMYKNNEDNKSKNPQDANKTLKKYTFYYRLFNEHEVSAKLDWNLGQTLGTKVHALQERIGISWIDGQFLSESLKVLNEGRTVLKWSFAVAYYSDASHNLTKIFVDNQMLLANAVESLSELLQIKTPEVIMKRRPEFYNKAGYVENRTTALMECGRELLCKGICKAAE
The test can be described thus: co-IP; MYC tagged Hel1 or Hel2 immunoprecipitated with MYC antibody beads from 3 liter cultures of strains carrying FLAG-tagged Rad53; Western blot.

The target in test [3] is T3, MYC tagged Hel2 (S. cerevisiae) (UniProt Q05580).
T3 sequence: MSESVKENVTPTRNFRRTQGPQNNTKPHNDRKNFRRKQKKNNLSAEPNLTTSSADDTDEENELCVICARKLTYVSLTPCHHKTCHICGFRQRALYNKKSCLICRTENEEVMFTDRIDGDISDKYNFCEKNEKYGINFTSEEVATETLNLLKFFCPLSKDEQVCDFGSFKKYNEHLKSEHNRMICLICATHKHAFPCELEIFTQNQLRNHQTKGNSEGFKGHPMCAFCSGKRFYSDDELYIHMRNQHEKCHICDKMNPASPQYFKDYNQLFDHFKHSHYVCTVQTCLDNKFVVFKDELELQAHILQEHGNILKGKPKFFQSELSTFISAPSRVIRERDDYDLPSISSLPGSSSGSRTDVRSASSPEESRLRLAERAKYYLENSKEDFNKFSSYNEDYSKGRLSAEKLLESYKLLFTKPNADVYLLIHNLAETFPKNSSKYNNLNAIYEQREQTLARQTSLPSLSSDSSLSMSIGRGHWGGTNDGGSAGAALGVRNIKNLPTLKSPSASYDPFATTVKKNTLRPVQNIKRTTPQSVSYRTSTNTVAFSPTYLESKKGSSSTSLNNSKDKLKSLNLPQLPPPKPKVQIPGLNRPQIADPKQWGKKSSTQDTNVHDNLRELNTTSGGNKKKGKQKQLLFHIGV
The description is as above.

The target in test [4] is T4, HIS6-HA-Protein A tagged Hel1 (YKR017C) (S. cerevisiae) (UniProt P36113).
T4 sequence: T2 sequence
Nature of the test: co-IP; HA-tagged E3 ligases immunoprecipitated with magnetic beads conjugated to HA.11 antibodies from 1 liter cultures; endogenous histones H3 and H4 detected with polyclonal antibodies.

Test [5] has as its target T5, HIS6-HA-Protein A tagged Hel2 (YDR266C) (S. cerevisiae) (UniProt Q05580).
T5 sequence: T3 sequence
The description is as above.

In test [6] the target is HIS6-HA-Protein A tagged Pep5 (S. cerevisiae) (UniProt P12868). The test is described as above.
The target of test [7] is T6, HIS6-HA-Protein A tagged Snt2 (S. cerevisiae) (UniProt P53127).
T6 sequence: T1 sequence
The description is as above.

Test [8] deals with MYC13-tagged Ubc4 (S. cerevisiae) (UniProt P15731). The test can be described thus: co-IP; Ubc4-MYC immunoprecipitated with anti-MYC EZ View beads (Sigma) from whole cell extracts of 0.5 liter cultures; HA-tagged E3 ligases detected with HA.11 antibodies.
Test [9] addresses T4, HIS6-HA-Protein A tagged Hel1 (YKR017C) (S. cerevisiae). The test can be described thus: co-IP; reciprocal immunoprecipitation of the Ubc4-MYC / HA-tagged E3 ligase pairs; data not shown.
In test [10] the target is T5, HIS6-HA-Protein A tagged Hel2 (YDR266C) (S. cerevisiae). The description is as above.
Test [11] deals with HIS6-HA-Protein A tagged Pep5 (S. cerevisiae) (UniProt P12868). Described as above.
Test [12] concerns the target T6, HIS6-HA-Protein A tagged Snt2 (S. cerevisiae). The description is as above.

Consider “FLAG-tagged Rad53 (from UniProt P22216 1-821) (enzyme)”, for which the binding result in test [1], in [2] and in test [3] was “binds” throughout.
Take “histone H3 (endogenous) (from UniProt P61830 1-136)”: the binding entry in [4], in test [5], in test [6] and in [7] was “binds” in each case.
“HIS6-HA-Protein A tagged Pep5 (from UniProt P12868 1-1029) (enzyme)”: the binding result in test [8] is “binds”.
For “MYC13-tagged Ubc4 (from UniProt P15731 1-148) (enzyme)”, the binding entry in test [9], in test [10], in [11] and in test [12] was “binds” each time.

B1: HIS6-HA-Protein A tagged Snt2 (enzyme, UniProt P53127 1-1403)
chain: T1 sequence
As for B1, the binding result in test [8] is given as “binds”.

B2: HIS6-HA-Protein A tagged Hel1 (YKR017C) (enzyme, UniProt P36113 1-551)
chain: T2 sequence
As to B2, the binding entry in test [8] was “binds”.
